Measurements taken from the supplement of paper PMC12819154, “High-throughput peptide-centric local stability assay extends protein–ligand identification to membrane proteins, tissues and bacteria” (Nature Structural & Molecular Biology, 2025).
Some of the results follow. Most values lie at the level of the controls, where differences are scatter.

Amino acid sequences for entries named in this document (tags omitted). A change or cut given only in a name is not applied to a line headed by its entry.
UniProt Q9D0B0, whole entry: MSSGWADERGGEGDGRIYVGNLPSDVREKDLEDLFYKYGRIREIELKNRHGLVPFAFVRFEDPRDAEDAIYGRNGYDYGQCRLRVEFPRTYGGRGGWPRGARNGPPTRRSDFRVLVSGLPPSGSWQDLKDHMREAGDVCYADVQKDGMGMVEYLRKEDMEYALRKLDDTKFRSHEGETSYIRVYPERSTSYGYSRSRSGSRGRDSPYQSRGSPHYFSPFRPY
UniProt Q9D7I5: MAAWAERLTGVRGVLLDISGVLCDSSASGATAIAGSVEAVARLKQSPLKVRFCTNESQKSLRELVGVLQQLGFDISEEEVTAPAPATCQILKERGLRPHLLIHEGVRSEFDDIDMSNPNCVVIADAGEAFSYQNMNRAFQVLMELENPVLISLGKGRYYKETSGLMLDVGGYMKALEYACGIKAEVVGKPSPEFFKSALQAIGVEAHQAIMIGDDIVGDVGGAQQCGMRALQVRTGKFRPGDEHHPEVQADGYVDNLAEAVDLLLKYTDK
UniProt Q9CZ42: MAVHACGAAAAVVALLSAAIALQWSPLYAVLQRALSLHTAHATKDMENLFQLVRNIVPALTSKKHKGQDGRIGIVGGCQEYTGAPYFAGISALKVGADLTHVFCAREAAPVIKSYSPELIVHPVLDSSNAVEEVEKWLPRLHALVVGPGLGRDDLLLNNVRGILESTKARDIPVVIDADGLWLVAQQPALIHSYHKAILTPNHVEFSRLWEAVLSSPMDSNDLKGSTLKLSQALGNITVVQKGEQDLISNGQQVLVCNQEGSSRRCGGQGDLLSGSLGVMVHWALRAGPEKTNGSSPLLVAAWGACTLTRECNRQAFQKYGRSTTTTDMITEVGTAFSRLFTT
UniProt Q9D5V6: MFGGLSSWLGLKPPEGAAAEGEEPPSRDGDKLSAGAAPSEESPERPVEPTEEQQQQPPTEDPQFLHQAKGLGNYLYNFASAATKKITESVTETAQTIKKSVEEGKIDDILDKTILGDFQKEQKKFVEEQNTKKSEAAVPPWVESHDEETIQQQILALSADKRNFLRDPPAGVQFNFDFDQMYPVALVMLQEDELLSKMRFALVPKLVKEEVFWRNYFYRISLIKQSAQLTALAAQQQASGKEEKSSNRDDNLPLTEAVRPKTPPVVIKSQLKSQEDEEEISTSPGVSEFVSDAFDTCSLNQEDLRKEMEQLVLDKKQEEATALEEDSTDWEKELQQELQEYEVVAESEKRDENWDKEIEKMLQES
UniProt Q9DBS5: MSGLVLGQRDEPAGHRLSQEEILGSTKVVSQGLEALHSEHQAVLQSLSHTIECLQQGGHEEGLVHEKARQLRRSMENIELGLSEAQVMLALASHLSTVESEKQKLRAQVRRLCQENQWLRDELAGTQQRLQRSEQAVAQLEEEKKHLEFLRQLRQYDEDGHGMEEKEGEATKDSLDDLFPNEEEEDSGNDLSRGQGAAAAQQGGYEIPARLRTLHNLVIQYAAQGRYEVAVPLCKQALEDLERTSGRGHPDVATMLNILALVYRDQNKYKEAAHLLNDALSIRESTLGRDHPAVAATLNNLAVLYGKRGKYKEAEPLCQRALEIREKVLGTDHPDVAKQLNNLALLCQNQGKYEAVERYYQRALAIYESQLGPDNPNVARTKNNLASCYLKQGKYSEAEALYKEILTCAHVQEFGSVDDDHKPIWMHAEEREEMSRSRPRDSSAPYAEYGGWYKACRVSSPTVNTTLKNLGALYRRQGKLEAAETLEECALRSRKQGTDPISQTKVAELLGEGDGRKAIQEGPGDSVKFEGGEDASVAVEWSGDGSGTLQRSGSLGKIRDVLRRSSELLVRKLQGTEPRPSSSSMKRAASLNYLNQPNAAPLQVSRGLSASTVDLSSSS
UniProt Q9D172: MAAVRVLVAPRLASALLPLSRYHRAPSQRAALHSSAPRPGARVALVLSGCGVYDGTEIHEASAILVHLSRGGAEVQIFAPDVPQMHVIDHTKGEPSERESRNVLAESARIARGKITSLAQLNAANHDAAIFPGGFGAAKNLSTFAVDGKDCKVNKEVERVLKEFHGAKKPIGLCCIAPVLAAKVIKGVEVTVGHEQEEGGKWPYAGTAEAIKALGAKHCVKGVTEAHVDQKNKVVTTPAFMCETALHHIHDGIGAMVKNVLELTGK
UniProt Q9D8W7: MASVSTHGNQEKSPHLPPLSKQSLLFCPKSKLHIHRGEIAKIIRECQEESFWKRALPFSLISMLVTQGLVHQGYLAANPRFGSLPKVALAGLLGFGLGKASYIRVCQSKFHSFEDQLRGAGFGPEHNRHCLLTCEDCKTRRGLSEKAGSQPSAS
UniProt Q9DC29: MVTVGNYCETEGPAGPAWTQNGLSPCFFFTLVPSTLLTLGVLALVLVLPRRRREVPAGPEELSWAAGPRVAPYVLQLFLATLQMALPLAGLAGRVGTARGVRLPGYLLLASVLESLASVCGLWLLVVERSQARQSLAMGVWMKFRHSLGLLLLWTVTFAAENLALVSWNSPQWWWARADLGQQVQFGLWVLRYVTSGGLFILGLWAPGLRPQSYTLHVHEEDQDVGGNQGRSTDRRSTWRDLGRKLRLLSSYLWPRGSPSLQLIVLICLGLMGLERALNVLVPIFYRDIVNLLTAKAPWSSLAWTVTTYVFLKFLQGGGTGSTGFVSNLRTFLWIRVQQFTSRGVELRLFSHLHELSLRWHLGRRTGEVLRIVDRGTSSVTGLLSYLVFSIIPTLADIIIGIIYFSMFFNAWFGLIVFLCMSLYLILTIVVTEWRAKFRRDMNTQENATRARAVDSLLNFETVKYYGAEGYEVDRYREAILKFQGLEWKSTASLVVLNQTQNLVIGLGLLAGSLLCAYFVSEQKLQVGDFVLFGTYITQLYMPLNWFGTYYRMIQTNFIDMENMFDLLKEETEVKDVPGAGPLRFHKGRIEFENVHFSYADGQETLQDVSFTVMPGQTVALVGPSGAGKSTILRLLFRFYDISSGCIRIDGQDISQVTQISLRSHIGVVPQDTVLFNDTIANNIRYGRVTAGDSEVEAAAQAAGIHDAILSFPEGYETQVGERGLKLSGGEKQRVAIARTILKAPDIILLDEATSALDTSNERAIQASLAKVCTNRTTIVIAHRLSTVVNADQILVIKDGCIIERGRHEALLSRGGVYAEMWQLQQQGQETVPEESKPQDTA
UniProt Q9DBX3: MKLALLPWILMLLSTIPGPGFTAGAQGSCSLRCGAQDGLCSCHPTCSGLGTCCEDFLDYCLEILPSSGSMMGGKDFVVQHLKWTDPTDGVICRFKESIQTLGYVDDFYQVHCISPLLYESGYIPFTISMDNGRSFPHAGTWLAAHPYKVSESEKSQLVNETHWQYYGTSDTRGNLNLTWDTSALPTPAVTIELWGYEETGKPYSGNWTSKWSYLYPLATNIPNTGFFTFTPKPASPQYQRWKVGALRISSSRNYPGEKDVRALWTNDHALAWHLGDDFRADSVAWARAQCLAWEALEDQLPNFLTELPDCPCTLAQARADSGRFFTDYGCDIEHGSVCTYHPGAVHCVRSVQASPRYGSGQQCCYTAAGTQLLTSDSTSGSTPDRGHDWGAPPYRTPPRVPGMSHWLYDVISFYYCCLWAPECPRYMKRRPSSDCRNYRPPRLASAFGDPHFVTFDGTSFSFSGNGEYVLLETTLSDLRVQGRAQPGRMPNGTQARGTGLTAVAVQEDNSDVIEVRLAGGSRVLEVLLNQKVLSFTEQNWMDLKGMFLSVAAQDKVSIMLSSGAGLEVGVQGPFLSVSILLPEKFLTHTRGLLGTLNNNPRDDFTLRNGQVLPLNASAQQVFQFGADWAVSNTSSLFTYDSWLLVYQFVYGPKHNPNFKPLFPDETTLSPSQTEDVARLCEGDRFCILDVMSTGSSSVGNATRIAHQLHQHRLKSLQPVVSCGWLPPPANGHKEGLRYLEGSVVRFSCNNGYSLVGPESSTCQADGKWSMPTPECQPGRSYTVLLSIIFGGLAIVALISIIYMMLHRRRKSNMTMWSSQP
UniProt Q9D6Z1: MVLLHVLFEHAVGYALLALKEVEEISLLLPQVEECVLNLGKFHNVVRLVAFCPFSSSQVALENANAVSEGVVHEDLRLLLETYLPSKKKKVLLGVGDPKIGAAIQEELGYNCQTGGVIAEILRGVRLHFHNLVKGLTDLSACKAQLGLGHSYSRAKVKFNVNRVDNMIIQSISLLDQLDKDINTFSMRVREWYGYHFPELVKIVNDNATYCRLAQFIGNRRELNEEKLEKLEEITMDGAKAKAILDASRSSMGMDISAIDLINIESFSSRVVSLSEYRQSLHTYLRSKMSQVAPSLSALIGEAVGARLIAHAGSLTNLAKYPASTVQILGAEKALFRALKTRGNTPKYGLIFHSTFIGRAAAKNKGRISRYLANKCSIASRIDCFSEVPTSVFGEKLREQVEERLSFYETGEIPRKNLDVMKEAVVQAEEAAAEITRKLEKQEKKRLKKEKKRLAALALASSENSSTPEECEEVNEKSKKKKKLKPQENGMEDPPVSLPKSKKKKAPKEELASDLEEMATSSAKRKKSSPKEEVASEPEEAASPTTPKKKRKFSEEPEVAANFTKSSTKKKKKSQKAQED
UniProt Q9D772: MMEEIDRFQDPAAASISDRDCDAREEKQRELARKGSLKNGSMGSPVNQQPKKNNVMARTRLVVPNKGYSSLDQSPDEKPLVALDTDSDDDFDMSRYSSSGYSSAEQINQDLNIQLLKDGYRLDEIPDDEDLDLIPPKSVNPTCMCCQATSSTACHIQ
UniProt Q9D710, whole entry: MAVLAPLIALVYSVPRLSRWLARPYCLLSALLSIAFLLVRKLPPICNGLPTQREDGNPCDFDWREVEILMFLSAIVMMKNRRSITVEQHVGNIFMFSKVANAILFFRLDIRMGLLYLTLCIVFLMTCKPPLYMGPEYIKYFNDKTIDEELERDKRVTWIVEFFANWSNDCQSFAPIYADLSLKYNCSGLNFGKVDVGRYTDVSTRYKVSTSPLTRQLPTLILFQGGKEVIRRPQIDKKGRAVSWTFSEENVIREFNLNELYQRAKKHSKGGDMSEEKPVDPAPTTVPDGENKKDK
UniProt Q9D394: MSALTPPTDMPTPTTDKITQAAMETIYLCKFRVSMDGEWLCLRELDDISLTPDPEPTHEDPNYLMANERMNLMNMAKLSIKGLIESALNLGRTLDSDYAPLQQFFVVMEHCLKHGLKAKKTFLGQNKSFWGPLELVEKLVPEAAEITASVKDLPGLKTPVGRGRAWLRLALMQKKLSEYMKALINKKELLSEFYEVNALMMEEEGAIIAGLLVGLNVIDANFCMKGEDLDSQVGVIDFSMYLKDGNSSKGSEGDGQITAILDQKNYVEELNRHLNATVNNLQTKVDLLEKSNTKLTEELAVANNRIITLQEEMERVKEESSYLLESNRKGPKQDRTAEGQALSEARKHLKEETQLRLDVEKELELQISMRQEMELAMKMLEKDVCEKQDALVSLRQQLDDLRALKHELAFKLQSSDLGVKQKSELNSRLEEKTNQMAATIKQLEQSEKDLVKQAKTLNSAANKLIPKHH
UniProt Q9CXL3: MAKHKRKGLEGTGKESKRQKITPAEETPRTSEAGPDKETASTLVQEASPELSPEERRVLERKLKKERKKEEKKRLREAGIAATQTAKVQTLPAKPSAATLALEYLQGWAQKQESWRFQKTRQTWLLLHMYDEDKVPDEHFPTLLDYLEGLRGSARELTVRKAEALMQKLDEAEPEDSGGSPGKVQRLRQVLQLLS
UniProt Q9CZN8: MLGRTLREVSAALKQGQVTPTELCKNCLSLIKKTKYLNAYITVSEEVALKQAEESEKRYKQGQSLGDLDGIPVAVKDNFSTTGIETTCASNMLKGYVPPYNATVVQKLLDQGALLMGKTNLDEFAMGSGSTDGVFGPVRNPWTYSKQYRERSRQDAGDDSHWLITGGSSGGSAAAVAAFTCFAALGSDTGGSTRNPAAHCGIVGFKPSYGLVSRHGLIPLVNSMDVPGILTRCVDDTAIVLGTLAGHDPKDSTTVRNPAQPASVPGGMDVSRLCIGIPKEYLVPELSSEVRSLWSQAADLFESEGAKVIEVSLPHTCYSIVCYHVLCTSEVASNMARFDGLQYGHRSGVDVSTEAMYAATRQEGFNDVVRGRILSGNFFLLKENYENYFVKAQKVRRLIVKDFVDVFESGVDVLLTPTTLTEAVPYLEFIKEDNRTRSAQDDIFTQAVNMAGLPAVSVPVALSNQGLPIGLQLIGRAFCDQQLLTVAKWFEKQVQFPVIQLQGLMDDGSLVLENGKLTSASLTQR
UniProt Q9DAZ9: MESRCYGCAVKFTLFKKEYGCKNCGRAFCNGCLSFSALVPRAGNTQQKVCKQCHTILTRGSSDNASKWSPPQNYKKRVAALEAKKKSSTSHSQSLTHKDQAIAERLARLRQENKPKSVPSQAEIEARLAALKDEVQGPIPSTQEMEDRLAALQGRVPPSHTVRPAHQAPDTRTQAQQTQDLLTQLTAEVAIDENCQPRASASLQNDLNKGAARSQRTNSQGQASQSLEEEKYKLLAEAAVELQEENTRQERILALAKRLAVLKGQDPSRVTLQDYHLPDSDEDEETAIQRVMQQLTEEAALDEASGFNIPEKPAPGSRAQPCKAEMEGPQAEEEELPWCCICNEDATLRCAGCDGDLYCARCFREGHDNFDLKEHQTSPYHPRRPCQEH

compound: CN[C@@H]1C[C@H]2O[C@@](C)([C@@H]1OC)n1c3ccccc3c3c4c(c5c6ccccc6n2c5c31)C(=O)NC4 [staurosporine]; experiment: log2 fold change of pooled soluble protein (PISA), ligand vs vehicle (log2 ratio); higher = more thermally stabilized; settings: ligand concentration: 20 uM; assay format: PISA pool 52.9/55.5/58.6 C

Target | log2 fold change of pooled soluble protein
UniProt Q9D0B0 | 0.0148
UniProt Q9D7I5 | -0.0377
UniProt Q9D826 | -0.0527
UniProt Q9D855 | 0.0489
UniProt Q9CZ42 | -0.135
UniProt Q9DBK0 | -0.0721
UniProt Q9D8H7 | 0.0365
UniProt Q9D5V6 | -0.195
UniProt Q9D6R2 | 0.0319
UniProt Q9CY50 | -0.0239
UniProt Q9CY97 | 0.0842
UniProt Q9D711 | -0.0324
UniProt Q9D0J8 | -0.0795
UniProt Q9D8X1 | 0.0447
UniProt Q9CZX7 | -0.0351
UniProt Q9DBS5 | -0.106
UniProt Q9D172 | 0.0677
UniProt Q9D8W7 | -0.0572

Single values from the results shown.
Entry for UniProt Q9CZ42 under log2 fold change of pooled soluble protein: -0.135
Entry for UniProt Q9D826 under log2 fold change of pooled soluble protein: -0.0527

(cont.)

Target | log2 fold change of pooled soluble protein
UniProt Q9DC29 | 0.00488
UniProt Q9DBX3 | -0.012
UniProt Q9D6Z1 | 0.264
UniProt Q9D772 | 0.44
UniProt Q9D710 | -0.223
UniProt Q9D394 | 0.0119
UniProt Q9D3D9 | -0.0763
UniProt Q9D6M3 | -0.0776
UniProt Q9DBG1 | 0.13
UniProt Q9D4F2 | -0.102
UniProt Q9CXL3 | -0.0307
UniProt Q9CZN8 | 0.369
UniProt Q9D0B5 | -0.059
UniProt Q9DAZ9 | -0.071
UniProt Q9DBW0 | 0.0309
UniProt Q9DB94 | 0.386
UniProt Q9D7X8 | 0.0498
UniProt Q9D4H8 | -0.376
